This note sets out measurements from PubChem BioAssay AID1461 (National Center for Advancing Translational Sciences (NCATS), 2008).

Sequences of proteins named here, by UniProt entry; tags and fusion partners are left off. A change or cut given only in a name is not applied to a line headed by its entry.
UniProt Q6W5P4: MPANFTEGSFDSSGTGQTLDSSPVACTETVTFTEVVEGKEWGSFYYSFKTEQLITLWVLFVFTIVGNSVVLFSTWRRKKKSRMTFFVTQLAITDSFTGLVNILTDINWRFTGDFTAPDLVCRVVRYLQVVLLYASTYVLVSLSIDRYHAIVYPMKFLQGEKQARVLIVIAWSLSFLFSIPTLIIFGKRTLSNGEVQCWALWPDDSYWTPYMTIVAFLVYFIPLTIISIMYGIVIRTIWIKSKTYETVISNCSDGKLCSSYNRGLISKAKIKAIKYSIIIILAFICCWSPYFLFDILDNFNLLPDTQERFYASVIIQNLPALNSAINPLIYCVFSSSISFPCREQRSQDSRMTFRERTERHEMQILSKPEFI

This is a selection; strong and weak results do not stand in their true shares. Inconclusive results are not listed. Calls of active or inactive are those of the source. Calls come from the whole dose curve; as a rule, active = well fitted inhibition curve with a large enough effect; inconclusive = small, poorly fitted or top-dose-only effect, or effect the other way; inactive = no such curve, though single readings can be large or run the other way.
Potency is the fitted concentration of half-maximal effect.

The assay addresses Neuropeptide S receptor (Homo sapiens) (UniProt Q6W5P4). In words: qHTS Assay for Antagonists of the Neuropeptide S Receptor: cAMP Signal Transduction. Note: nearly all actives have a fitted effect of over 50% in size. The note with it: CHO-NPSR cells, cAMP TR-FRET, antagonist mode. From the text:
NIH Chemical Genomics Center [NCGC] NIH Molecular Libraries Probe Production centers Network [MLPCN] MLPCN Grant: X01-DA026210-01 Assay Submitter (PI): Heilig, Markus Alexander NCGC Assay Overview: Neuropeptide S receptor (NPSR), previously known as GPR154, is a recently de-orphanized G protein coupled receptor. Its endogenous ligand is the 20 amino acids peptide Neuropeptide S (NPS). […] NPS and its receptor are found in various tissues. Specifically they are highly expressed in brain areas that have been implicated in modulation of arousal, stress and anxiety. Central administration of NPS in mice produces an unusual profile of activity by inducing wakefulness and arousal, while at the same time suppressing anxiety. Therefore, NPSR may represent a novel drug target for the treatment of sleep and anxiety disorders. […] This change in intracellular cAMP level can be detected by a homogeneous LANCE cAMP assay based on the TR-FRET (time resolved fluorescence resonance energy transfer) between a europium-labeled cAMP tracer complex and a cAMP-specific antibody labeled with Alexa Fluor 647. […] Both emission signals from the FRET donor (620 nm) and the acceptor (665 nm) can be detected by a plate reader in the TRF mode. Expression of result in fluorescence ratio (665 nm/620 nm) helps to normalize differences due to cell density and reagent dispensing. […]
In the case of `CN(C)c1ccc2nc3ccc(=[N+](C)C)cc-3sc2c1`, the Potency was active: 1580 nM.
